Measurements reported in PubChem BioAssay AID1224830 (NIAID, 2016).
Assay: 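Genes whose knock-down alters the TNF-alpha reporter response to LPS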 (primary screen). Cells: human THP-1 monocytic leukaemia cells, TNF dual-luciferase reporter clone, PMA-differentiated to macrophage-like cells. Reagents: siRNA pool against human genes, 50 nM. Duration: LPS for 4 h, given about 3 days after siRNA transfection. Challenge: bacterial LPS (TLR4 ligand), 10 ng/ml. Read-out: 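TNF firefly reporter luminescence divided by renilla, normalised to the plate median, then turned into a robust z-score for each replicate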. Scale: TNF reporter robust z-score: higher = stronger TNF reporter response to LPS. Hit rule: 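Each well counts as active if its z-score is over 2.8 or under -1.5; controls are left without a call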.
The deposit covers about 18,000 reagents; below is a random part of them. About 2,900 of all reagents (16%) count as active. 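Calls are made per well; low scores hint the gene aids the LPS response, high scores that it dampens it.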 Repeated entries: four replicate wells of each siRNA pool.

| TNF reporter robust z-score | outcome | gene |
| --- | --- | --- |
| 2.75 | inactive | CCL1 (C-C motif chemokine ligand 1) |
| 2.82 | active | CCL1 (C-C motif chemokine ligand 1) |
| 2.28 | inactive | CCL1 (C-C motif chemokine ligand 1) |
| -0.85 | inactive | CCL1 (C-C motif chemokine ligand 1) |
| -0.99 | inactive | ADAMTS13 (ADAM metallopeptidase with thrombospondin type 1 motif 13) |
| 0.11 | inactive | ADAMTS13 (ADAM metallopeptidase with thrombospondin type 1 motif 13) |
| -0.57 | inactive | ADAMTS13 (ADAM metallopeptidase with thrombospondin type 1 motif 13) |
| 1.54 | inactive | ADAMTS13 (ADAM metallopeptidase with thrombospondin type 1 motif 13) |
| 0.91 | inactive | CXCL1 (C-X-C motif chemokine ligand 1) |
| 1.11 | inactive | CXCL1 (C-X-C motif chemokine ligand 1) |
| 1.37 | inactive | CXCL1 (C-X-C motif chemokine ligand 1) |
| 0.17 | inactive | CXCL1 (C-X-C motif chemokine ligand 1) |
| -1.44 | inactive | PHF20 (PHD finger protein 20) |
| 0.02 | inactive | PHF20 (PHD finger protein 20) |
| -2.32 | active | PHF20 (PHD finger protein 20) |
| 0.18 | inactive | PHF20 (PHD finger protein 20) |
| -0.95 | inactive | PSAT1 (phosphoserine aminotransferase 1) |
| -0.18 | inactive | PSAT1 (phosphoserine aminotransferase 1) |
| -0.22 | inactive | PSAT1 (phosphoserine aminotransferase 1) |
| 0.89 | inactive | PSAT1 (phosphoserine aminotransferase 1) |
| 0.32 | inactive | EGR3 (early growth response 3) |
| -0.68 | inactive | EGR3 (early growth response 3) |
| 0.01 | inactive | EGR3 (early growth response 3) |
| -0.05 | inactive | EGR3 (early growth response 3) |
| 0.06 | inactive | SAT2 (spermidine/spermine N1-acetyltransferase family member 2) |
| -0.48 | inactive | SAT2 (spermidine/spermine N1-acetyltransferase family member 2) |
| -1.37 | inactive | SAT2 (spermidine/spermine N1-acetyltransferase family member 2) |
| -0.22 | inactive | SAT2 (spermidine/spermine N1-acetyltransferase family member 2) |
| -0.33 | inactive | TWSG1 (twisted gastrulation BMP signaling modulator 1) |
| -0.06 | inactive | TWSG1 (twisted gastrulation BMP signaling modulator 1) |
| 0.05 | inactive | TWSG1 (twisted gastrulation BMP signaling modulator 1) |
| -0.07 | inactive | TWSG1 (twisted gastrulation BMP signaling modulator 1) |
| 1.25 | inactive | MTMR3 (myotubularin related protein 3) |
| 4.2 | active | MTMR3 (myotubularin related protein 3) |
| 0.98 | inactive | MTMR3 (myotubularin related protein 3) |
| 1 | inactive | MTMR3 (myotubularin related protein 3) |
| 1.83 | inactive | DBF4 (DBF4-CDC7 kinase regulatory subunit) |
| 0.5 | inactive | DBF4 (DBF4-CDC7 kinase regulatory subunit) |
| 0.94 | inactive | DBF4 (DBF4-CDC7 kinase regulatory subunit) |
| 0.4 | inactive | DBF4 (DBF4-CDC7 kinase regulatory subunit) |
| 0.27 | inactive | MMS22L (MMS22 like, DNA repair protein) |
| 0.89 | inactive | MMS22L (MMS22 like, DNA repair protein) |
| 0.33 | inactive | MMS22L (MMS22 like, DNA repair protein) |
| 1.23 | inactive | MMS22L (MMS22 like, DNA repair protein) |
| -0.49 | inactive | GFM2 (GTP dependent ribosome recycling factor mitochondrial GFM2) |
| 0.17 | inactive | GFM2 (GTP dependent ribosome recycling factor mitochondrial GFM2) |
| -0.52 | inactive | GFM2 (GTP dependent ribosome recycling factor mitochondrial GFM2) |
| -0.45 | inactive | GFM2 (GTP dependent ribosome recycling factor mitochondrial GFM2) |
| 0.12 | inactive | IFT54 (intraflagellar transport 54) |
| 2.27 | inactive | IFT54 (intraflagellar transport 54) |
| 0.14 | inactive | IFT54 (intraflagellar transport 54) |
| 1.42 | inactive | IFT54 (intraflagellar transport 54) |
| 0.1 | inactive | SLC49A4 |
| -0.14 | inactive | SLC49A4 |
| -0.25 | inactive | SLC49A4 |
| 0.59 | inactive | SLC49A4 |
| -0.01 | inactive | BICRA |
| 1.07 | inactive | BICRA |
| -0.36 | inactive | BICRA |
| 1.05 | inactive | BICRA |
| 1.53 | inactive | FCGR3A (Fc gamma receptor IIIa) |
| 2.71 | inactive | FCGR3A (Fc gamma receptor IIIa) |
| 1.74 | inactive | FCGR3A (Fc gamma receptor IIIa) |
| 4.34 | active | FCGR3A (Fc gamma receptor IIIa) |
| -0.22 | inactive | ECT2L (epithelial cell transforming 2 like) |
| 0.2 | inactive | ECT2L (epithelial cell transforming 2 like) |
| -0.25 | inactive | ECT2L (epithelial cell transforming 2 like) |
| -1.38 | inactive | ECT2L (epithelial cell transforming 2 like) |
| 0.17 | inactive | SNX13 (sorting nexin 13) |
| -0.59 | inactive | SNX13 (sorting nexin 13) |
| -0.46 | inactive | SNX13 (sorting nexin 13) |
| -0.73 | inactive | SNX13 (sorting nexin 13) |
| -0.13 | inactive | AARS2 (alanyl-tRNA synthetase 2, mitochondrial) |
| -0.37 | inactive | AARS2 (alanyl-tRNA synthetase 2, mitochondrial) |
| 0.5 | inactive | AARS2 (alanyl-tRNA synthetase 2, mitochondrial) |
| 0.09 | inactive | AARS2 (alanyl-tRNA synthetase 2, mitochondrial) |
| -0.75 | inactive | MAP3K2 (mitogen-activated protein kinase kinase kinase 2) |
| -0.84 | inactive | MAP3K2 (mitogen-activated protein kinase kinase kinase 2) |
| -0.8 | inactive | MAP3K2 (mitogen-activated protein kinase kinase kinase 2) |
| -1 | inactive | MAP3K2 (mitogen-activated protein kinase kinase kinase 2) |
| 3.73 | active | ZNF540 (zinc finger protein 540) |
| 3.27 | active | ZNF540 (zinc finger protein 540) |
| 2.17 | inactive | ZNF540 (zinc finger protein 540) |
| 0.61 | inactive | ZNF540 (zinc finger protein 540) |
| -1.18 | inactive | GPR137B (G protein-coupled receptor 137B) |
| -0.72 | inactive | GPR137B (G protein-coupled receptor 137B) |
| -0.9 | inactive | GPR137B (G protein-coupled receptor 137B) |
| -0.89 | inactive | GPR137B (G protein-coupled receptor 137B) |
| -0.18 | inactive | TMPRSS11E (transmembrane serine protease 11E) |
| 0.92 | inactive | TMPRSS11E (transmembrane serine protease 11E) |
| 0.83 | inactive | TMPRSS11E (transmembrane serine protease 11E) |
| 1.23 | inactive | TMPRSS11E (transmembrane serine protease 11E) |
| 0.33 | inactive | DMAC2 (distal membrane arm assembly component 2) |
| 1.01 | inactive | DMAC2 (distal membrane arm assembly component 2) |
| 0.55 | inactive | DMAC2 (distal membrane arm assembly component 2) |
| 0.72 | inactive | DMAC2 (distal membrane arm assembly component 2) |
| -1.25 | inactive | PDGFRB (platelet derived growth factor receptor beta) |
| -1.34 | inactive | PDGFRB (platelet derived growth factor receptor beta) |
| -1.29 | inactive | PDGFRB (platelet derived growth factor receptor beta) |
| 0.45 | inactive | PDGFRB (platelet derived growth factor receptor beta) |
| 0.6 | inactive | SLC35D3 |
| 1.46 | inactive | SLC35D3 |
| 0.26 | inactive | SLC35D3 |
| -0.14 | inactive | TRIM33 (tripartite motif containing 33) |
| 0.74 | inactive | TRIM33 (tripartite motif containing 33) |
| 0.4 | inactive | TRIM33 (tripartite motif containing 33) |
| -0.34 | inactive | TRIM33 (tripartite motif containing 33) |
| 0.79 | inactive | ESCO2 |
| 0.41 | inactive | ESCO2 |
| 0.62 | inactive | ESCO2 |
| -0.75 | inactive | ESCO2 |

A run of entries from the list above:
| TNF reporter robust z-score | outcome | gene |
| --- | --- | --- |
| 1.42 | inactive | IFT54 (intraflagellar transport 54) |
| 0.1 | inactive | SLC49A4 |
| -0.14 | inactive | SLC49A4 |
| -0.25 | inactive | SLC49A4 |
| 0.59 | inactive | SLC49A4 |
| -0.01 | inactive | BICRA |
| 1.07 | inactive | BICRA |
| -0.36 | inactive | BICRA |
| 1.05 | inactive | BICRA |
| 1.53 | inactive | FCGR3A (Fc gamma receptor IIIa) |
